# Experimental data published in the supplement of paper PMC12067093, “Discovery and optimisation of a covalent ligand for TRIM25 and its application to targeted protein ubiquitination” (Chemical Science, 2025).
# Sequences of proteins named here, by UniProt entry; tags and fusion partners are left off. A change or cut given only in a name is not applied to a line headed by its entry.
# UniProt Q92616, whole entry, looked up: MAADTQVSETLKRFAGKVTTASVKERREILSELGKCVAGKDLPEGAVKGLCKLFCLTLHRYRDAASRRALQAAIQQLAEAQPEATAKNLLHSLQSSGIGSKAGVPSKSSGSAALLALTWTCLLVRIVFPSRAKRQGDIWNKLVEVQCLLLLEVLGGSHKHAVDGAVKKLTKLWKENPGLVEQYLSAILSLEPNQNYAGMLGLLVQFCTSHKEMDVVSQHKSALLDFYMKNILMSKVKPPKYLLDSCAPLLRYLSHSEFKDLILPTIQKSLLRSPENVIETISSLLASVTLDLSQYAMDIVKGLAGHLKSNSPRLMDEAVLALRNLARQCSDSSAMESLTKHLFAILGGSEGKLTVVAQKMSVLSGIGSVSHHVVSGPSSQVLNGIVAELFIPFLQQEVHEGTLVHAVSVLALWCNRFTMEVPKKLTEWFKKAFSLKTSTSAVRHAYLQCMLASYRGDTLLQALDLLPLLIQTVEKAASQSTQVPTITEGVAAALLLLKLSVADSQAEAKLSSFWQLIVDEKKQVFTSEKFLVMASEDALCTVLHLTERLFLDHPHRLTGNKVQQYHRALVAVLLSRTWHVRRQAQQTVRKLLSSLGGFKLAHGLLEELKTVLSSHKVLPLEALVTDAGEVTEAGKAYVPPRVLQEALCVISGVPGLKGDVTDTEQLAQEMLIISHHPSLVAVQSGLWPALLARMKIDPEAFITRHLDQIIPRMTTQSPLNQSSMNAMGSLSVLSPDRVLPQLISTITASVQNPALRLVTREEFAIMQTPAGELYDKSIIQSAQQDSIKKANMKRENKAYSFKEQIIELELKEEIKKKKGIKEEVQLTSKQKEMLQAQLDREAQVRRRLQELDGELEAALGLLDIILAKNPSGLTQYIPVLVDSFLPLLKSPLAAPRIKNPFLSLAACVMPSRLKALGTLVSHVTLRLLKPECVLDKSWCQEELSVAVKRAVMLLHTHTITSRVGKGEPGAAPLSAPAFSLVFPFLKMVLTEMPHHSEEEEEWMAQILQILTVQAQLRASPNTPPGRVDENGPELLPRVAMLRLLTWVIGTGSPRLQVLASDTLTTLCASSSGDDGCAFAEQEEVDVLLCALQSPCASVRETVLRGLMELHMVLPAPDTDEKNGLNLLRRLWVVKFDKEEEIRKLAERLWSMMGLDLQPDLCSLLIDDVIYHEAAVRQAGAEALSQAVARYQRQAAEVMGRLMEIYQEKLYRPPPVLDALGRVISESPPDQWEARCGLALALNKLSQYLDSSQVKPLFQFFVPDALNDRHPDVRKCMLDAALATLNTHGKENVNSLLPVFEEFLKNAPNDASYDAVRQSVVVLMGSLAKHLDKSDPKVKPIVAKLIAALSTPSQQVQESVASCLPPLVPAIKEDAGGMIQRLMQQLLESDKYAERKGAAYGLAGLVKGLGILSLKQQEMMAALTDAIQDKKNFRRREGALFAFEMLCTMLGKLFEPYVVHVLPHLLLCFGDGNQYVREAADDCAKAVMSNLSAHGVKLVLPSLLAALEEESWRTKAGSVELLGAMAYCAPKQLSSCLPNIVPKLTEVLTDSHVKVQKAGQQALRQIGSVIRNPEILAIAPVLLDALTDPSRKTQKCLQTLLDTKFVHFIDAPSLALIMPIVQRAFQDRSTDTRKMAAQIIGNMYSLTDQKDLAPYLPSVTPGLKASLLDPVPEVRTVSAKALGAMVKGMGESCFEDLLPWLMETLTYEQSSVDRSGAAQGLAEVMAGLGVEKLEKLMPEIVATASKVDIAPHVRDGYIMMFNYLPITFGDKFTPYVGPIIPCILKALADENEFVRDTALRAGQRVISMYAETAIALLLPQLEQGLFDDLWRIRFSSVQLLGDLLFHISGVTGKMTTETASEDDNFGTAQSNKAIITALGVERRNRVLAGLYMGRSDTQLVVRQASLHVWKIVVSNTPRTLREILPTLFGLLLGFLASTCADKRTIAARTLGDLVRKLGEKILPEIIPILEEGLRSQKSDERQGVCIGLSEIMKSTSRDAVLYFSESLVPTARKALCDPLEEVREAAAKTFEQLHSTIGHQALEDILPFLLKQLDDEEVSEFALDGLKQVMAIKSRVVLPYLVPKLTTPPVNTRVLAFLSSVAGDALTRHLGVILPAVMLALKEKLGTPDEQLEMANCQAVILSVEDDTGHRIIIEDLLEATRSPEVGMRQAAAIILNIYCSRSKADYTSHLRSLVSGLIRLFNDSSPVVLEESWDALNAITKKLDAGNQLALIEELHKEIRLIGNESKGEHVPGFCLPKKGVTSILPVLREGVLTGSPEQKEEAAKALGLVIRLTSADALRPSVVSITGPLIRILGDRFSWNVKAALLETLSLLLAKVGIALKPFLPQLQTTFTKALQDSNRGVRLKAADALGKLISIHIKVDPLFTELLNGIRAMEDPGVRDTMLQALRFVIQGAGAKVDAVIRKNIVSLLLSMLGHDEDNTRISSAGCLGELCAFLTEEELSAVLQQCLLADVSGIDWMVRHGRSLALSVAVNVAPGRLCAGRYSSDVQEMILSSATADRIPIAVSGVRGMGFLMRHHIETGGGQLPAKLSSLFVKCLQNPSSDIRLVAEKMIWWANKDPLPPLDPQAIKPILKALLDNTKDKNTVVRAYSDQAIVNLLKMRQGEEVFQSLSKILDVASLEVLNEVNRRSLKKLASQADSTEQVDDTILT
# UniProt P41250: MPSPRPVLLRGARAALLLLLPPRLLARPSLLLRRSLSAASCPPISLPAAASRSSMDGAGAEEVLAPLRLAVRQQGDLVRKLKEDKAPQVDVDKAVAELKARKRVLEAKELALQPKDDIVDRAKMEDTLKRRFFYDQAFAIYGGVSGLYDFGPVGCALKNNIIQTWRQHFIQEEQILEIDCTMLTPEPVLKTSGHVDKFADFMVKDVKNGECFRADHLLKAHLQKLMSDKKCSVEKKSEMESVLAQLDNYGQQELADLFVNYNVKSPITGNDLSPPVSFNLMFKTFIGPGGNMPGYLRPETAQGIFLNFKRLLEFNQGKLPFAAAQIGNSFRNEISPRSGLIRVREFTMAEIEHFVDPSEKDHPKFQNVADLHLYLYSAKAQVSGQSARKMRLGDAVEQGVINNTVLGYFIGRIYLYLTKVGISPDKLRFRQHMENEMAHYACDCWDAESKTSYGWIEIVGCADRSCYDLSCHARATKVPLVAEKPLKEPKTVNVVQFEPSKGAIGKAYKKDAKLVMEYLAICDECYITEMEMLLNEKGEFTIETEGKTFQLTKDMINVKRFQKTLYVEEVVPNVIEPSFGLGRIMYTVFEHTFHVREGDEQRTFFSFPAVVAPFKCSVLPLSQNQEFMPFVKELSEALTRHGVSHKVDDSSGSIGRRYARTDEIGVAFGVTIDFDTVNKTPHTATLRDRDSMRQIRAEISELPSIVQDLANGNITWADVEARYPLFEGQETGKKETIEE
# UniProt Q96RP9: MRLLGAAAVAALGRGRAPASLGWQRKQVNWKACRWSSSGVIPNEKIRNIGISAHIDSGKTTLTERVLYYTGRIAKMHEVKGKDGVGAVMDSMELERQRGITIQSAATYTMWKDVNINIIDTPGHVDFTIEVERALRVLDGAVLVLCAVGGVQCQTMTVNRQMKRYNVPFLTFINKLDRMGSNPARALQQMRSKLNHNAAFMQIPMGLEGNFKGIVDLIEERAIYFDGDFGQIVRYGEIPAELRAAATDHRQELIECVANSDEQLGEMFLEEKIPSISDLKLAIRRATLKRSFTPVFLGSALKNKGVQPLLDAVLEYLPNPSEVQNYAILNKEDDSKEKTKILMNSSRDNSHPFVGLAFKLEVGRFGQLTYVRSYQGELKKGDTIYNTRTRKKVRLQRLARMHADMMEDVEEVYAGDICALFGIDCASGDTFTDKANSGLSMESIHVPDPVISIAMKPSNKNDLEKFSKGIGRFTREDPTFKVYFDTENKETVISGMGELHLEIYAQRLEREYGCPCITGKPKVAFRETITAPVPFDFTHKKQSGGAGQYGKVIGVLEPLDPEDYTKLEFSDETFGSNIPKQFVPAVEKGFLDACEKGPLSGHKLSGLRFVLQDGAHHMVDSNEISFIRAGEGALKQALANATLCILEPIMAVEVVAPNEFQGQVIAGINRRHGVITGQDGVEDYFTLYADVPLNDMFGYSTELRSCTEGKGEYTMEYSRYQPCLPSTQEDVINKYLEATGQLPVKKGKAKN
# UniProt P48507: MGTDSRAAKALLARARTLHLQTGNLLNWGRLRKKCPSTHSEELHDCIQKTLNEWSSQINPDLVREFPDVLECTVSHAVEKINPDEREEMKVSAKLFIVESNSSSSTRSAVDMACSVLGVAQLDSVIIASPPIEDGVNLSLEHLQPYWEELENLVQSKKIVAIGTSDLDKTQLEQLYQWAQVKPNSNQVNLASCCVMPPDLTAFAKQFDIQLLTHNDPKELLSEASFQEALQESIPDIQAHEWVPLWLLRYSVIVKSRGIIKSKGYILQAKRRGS
# UniProt Q14697: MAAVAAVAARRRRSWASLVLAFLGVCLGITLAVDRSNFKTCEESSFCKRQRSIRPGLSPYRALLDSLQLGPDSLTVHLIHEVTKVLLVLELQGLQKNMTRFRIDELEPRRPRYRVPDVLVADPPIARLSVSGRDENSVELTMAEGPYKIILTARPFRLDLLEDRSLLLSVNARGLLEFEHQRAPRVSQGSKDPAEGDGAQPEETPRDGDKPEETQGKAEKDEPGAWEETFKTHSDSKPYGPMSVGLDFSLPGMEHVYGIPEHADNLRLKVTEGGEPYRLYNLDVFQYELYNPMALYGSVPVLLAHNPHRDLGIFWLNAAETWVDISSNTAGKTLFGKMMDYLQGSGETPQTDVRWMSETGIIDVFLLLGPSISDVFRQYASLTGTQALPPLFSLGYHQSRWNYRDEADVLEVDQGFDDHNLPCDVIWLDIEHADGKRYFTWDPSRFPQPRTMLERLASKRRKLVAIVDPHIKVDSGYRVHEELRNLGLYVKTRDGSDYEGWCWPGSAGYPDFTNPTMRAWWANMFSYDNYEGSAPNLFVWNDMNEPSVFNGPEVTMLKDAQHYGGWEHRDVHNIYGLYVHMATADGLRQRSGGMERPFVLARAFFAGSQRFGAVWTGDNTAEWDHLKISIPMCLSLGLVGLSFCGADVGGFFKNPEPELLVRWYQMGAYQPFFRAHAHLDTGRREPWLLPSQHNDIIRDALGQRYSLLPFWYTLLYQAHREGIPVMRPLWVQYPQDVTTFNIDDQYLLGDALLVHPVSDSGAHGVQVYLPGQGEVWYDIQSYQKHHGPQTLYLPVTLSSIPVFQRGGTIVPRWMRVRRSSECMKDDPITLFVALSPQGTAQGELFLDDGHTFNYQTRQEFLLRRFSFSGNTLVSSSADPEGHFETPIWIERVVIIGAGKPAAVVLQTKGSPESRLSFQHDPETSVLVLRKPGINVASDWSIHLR
# UniProt P04406: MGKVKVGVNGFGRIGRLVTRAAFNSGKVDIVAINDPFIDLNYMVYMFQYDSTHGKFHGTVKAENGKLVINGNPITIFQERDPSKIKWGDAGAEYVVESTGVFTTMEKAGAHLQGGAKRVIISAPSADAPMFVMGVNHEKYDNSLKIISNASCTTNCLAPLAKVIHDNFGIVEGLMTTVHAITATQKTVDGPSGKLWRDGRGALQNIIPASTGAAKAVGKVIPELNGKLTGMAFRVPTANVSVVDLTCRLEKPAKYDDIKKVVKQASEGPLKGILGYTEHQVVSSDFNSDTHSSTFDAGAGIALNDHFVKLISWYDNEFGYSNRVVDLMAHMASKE
# UniProt P50440: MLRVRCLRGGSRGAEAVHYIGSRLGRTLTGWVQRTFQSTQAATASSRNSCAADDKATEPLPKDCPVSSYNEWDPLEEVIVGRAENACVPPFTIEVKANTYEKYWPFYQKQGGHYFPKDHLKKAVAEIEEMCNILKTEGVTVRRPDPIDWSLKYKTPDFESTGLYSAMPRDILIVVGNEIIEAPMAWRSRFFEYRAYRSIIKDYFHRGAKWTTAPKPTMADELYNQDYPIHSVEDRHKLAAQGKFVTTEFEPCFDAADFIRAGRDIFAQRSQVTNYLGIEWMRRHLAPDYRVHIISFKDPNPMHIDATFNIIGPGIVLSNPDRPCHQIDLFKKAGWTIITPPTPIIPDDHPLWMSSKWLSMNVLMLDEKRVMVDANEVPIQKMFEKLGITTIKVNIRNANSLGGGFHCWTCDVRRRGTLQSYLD
# UniProt Q8TF64: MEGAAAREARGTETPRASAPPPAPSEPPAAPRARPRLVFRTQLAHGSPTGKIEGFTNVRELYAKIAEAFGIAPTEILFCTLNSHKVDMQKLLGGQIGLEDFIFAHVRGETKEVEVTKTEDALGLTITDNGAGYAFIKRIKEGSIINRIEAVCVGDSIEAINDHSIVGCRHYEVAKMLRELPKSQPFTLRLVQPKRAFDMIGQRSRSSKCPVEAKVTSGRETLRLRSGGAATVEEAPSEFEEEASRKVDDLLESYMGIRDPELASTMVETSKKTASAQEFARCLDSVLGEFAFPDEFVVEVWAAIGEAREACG
# UniProt Q9H840: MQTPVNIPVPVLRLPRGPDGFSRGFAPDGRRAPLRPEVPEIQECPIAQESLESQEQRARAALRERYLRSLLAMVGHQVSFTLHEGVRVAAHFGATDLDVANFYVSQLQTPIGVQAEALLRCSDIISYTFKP
# Some of the results follow.
# Compound: CC1Cc2ccccc2N1C(=O)C1CCCN(C1)C(=O)CCl (mixture of isomers) [TRIM25 ligand 11 (diastereomer mixture)]
# Test: probe-labelled cysteine peptide fold change vs DMSO (competition) (log2 fold change); higher = less target engagement (more negative = stronger competition)
# Conditions: THP-1, incubation time: 4 h
# 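Note: competitive chemoproteomic profiling in live THP-1 cells with an iodoacetamide desthiobiotin (IA-DTB) probe, comparing probe-labelled peptide intensities in compound-treated cells against DMSO-treated controls.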
Target,probe-labelled cysteine peptide fold change (10 µM),probe-labelled cysteine peptide fold change (50 µM)
GINS1_Q14691_75_CTVAYLYDR (UniProt Q14691),0.027,0.259
GCN1_Q92616_55_LFCLTLHR (UniProt Q92616),-0.0639,-0.0156
GGNBP2_Q9H3C7_586_DTHPESCCSSEK (UniProt Q9H3C7),-0.224,-0.312
GAR1_Q9NY12_88_CTTDENK (UniProt Q9NY12),-0.252,-0.245
GARS_P41250_442_QHMENEMAHYACDCWDAESK (UniProt P41250),0.123,0.111
GBP5_Q96PP8_233_CFIFDLPAHQK (UniProt Q96PP8),-0.0885,-0.135
GDI1_P31150_302_IICILSHPIK (UniProt P31150),-0.015,0.0665
GATAD2A_Q86YP4_6_TEEACR (UniProt Q86YP4),0.138,0.115
GALNT12_Q8IXK2_233_GDVLTFLDCHCECHEGWLEPLLQR (UniProt Q8IXK2),-0.107,-0.0103
GFM1_Q96RP9_256_QELIECVANSDEQLGEMFLEEK (UniProt Q96RP9),-0.056,-0.154
GGCT_O75223_144_KIICMGAK (UniProt O75223),-0.118,-0.195
GCLM_P48507_35_CPSTHSEELHDCIQK (UniProt P48507),0.12,0.0298
GAMT_Q14353_91_VQEAPIDEHWIIECNDGVFQR (UniProt Q14353),-0.0655,-0.021
GGA3_Q9NZ52_255_ELFDQCENK (UniProt Q9NZ52),0.0375,0.0992
GHDC_Q8N2G8_523_HLAQCLQER (UniProt Q8N2G8),-0.0423,-0.00951
GGPS1_O95749_247_YCVHYLEDVGSFEYTR (UniProt O95749),0.0621,0.00613
GALNT2_Q10471_496_HMDLCLTVVDRAPGSLIK (UniProt Q10471),-0.074,-0.154
GCA_P28676_182_IFFDDYVACCVK (UniProt P28676),0.0461,0.0583
GARS_P41250_180_QHFIQEEQILEIDCTMLTPEPVLK (UniProt P41250),-0.0562,-0.00609
GDAP2_Q9NXN4_148_TAAESSLYSCYR (UniProt Q9NXN4),-0.0526,0.0667
GALK2_Q01415_349_ICEEAPENMVQLLGELMNQSHMSCR (UniProt Q01415),0.43,-0.18

Target,probe-labelled cysteine peptide fold change (10 µM),probe-labelled cysteine peptide fold change (50 µM)
GCN1_Q92616_449_HAYLQCMLASYR (UniProt Q92616),0.0262,0.0277
GFM1_Q96RP9_706_SCTEGKGEYTMEYSR (UniProt Q96RP9),-0.199,-0.212
GCN1_Q92616_2136_LGTPDEQLEMANCQAVILSVEDDTGHR (UniProt Q92616),0.097,-0.0335
GANAB_Q14697_41+47_TCEESSFCK (UniProt Q14697),-0.0249,-0.041
GALT_P07902_180_GAMMGCSNPHPHCQVWASSFLPDIAQR (UniProt P07902),0.0147,-0.44
GCC2_Q8IWJ2_48_CTELEK (UniProt Q8IWJ2),-0.0382,0.0146
GANAB_Q14697_41_TCEESSFCK (UniProt Q14697),0.0619,0.142
GDE1_Q9NZC3_327_SYYESHLGSSYITDSMVEDCEPHF (UniProt Q9NZC3),0.00784,-0.357
GGNBP2_Q9H3C7_301_TIDIAQEEVLTCLGIHLYER (UniProt Q9H3C7),0.0625,0.0445
GANC_Q8TET4_758_TFAHWEGGCTVK (UniProt Q8TET4),0.0494,0.157
GFM2_Q969S9_329_VTLAQTAVPVLCGSALK (UniProt Q969S9),-0.00993,0.0905
GALNT12_Q8IXK2_231+233_GDVLTFLDCHCECHEGWLEPLLQR (UniProt Q8IXK2),-0.00174,0.188
GEMIN5_Q8TEQ6_441_EGCLAFGTDDGK (UniProt Q8TEQ6),0.16,-0.0346
GAN_Q9H2C0_415_IGCYAAMK (UniProt Q9H2C0),-0.0456,-0.0292
GBP4_Q96PP9_374_LPTDTLQELLDVHAACER (UniProt Q96PP9),0.216,0.0274
GBA2_Q9HCG7_511_NMCHLRPTLR (UniProt Q9HCG7),-0.0815,0.146
GEMIN4_P57678_317_LPSETIFVGCEFLHHLLR (UniProt P57678),0.0505,0.0534
GAPDH_P04406_247_LTGMAFRVPTANVSVVDLTCR (UniProt P04406),-0.459,-0.142
GIMAP2_Q9UG22_201_ELMDCIEDLLMEK (UniProt Q9UG22),0.0633,0.296
GIT1_Q9Y2X7_576_KGVSASAVPFTPSSPLLSCSQEGSR (UniProt Q9Y2X7),-0.159,-0.26
GATM_P50440_50_NSCAADDK (UniProt P50440),-0.154,-0.254

Target,probe-labelled cysteine peptide fold change (10 µM),probe-labelled cysteine peptide fold change (50 µM)
GAK_O14976_691_YDLDACDIQEK (UniProt O14976),0.0279,-0.0486
GALNT6_Q8NCL4_165_SLGPDTRPPECVDQK (UniProt Q8NCL4),-0.024,0.123
GID8_Q9NWU2_139_ECLTEMER (UniProt Q9NWU2),0.00151,-0.0683
GIMAP1_Q8WWP7_181_ELVAECGGR (UniProt Q8WWP7),-0.114,0.0386
GAPDHS_O14556_319_VPTPDVSVVDLTCR (UniProt O14556),-0.335,-0.153
GIPC1_O14908_189_EGSVIDHIHLISVGDMIEAINGQSLLGCR (UniProt O14908),0.0664,-0.152
GEMIN5_Q8TEQ6_19_CSDAVPGGLFGFAAR (UniProt Q8TEQ6),0.0916,0.0885
GARS_P41250_461_TSYGWIEIVGCADR (UniProt P41250),0.0856,0.0911
GDI2_P50395_302_VICILSHPIK (UniProt P50395),-0.0268,-0.00641
GIPC3_Q8TF64_168_EGSIINRIEAVCVGDSIEAINDHSIVGCR (UniProt Q8TF64),-0.368,-0.0169
GIT1_Q9Y2X7_11+14_AEVCADCSAPDPGWASISR (UniProt Q9Y2X7),-0.0503,0.223
GHDC_Q8N2G8_73_WCLQGAQRPHCSLR (UniProt Q8N2G8),0.249,-0.0412
GALM_Q96C23_38_VDIISWGCTITALEVK (UniProt Q96C23),-0.0103,-0.034
GARS_P41250_444_QHMENEMAHYACDCWDAESK (UniProt P41250),0.0552,0.0473
GCLC_P48506_615_CNQIANELCECPELLGSAFR (UniProt P48506),-0.00817,0.161
GAMT_Q14353_169_LLKPGGVLTYCNLTSWGELMK (UniProt Q14353),0.0945,0.125
GALNT2_Q10471_227+229_VLTFLDSHCECNEHWLEPLLER (UniProt Q10471),-0.0307,-0.011
GALNT7_Q86SF2_197_SVNDLRQEECK (UniProt Q86SF2),0.131,0.00904
GCC2_Q8IWJ2_1306_VTALQEECR (UniProt Q8IWJ2),0.0917,0.0121
GIPC3_Q8TF64_152_IEAVCVGDSIEAINDHSIVGCR (UniProt Q8TF64),0.00901,-0.0425
GATD1_Q8NB37_216_HLVTGQNASSTVPAVQNLLFLCGSR (UniProt Q8NB37),-0.0122,-0.0156

Target,probe-labelled cysteine peptide fold change (10 µM),probe-labelled cysteine peptide fold change (50 µM)
GAS7_O60861_318_CDHHIADLR (UniProt O60861),0.115,0.151
GGCX_P38435_343_AAPQPSVSCVYK (UniProt P38435),-0.0312,0.052
GATD1_Q8NB37_132_ILQHFHSESKPICAVGHGVAALCCATNEDR (UniProt Q8NB37),0.062,0.149
GIT1_Q9Y2X7_31_GVLVCDECCSVHR (UniProt Q9Y2X7),0.162,0.0222
GATM_P50440_407_NANSLGGGFHCWTCDVR (UniProt P50440),0.195,-0.119
GCFC2_P16383_336_IYVENLIDCLNEK (UniProt P16383),0.0405,0.116
GATM_P50440_407+410_NANSLGGGFHCWTCDVR (UniProt P50440),-0.0127,-0.0457
GAR1_Q9NY12_88_CTTDENKVPYFNAPVYLENK (UniProt Q9NY12),-0.443,-0.515
GATAD1_Q8WUU5_12_PLGLKPTCSVCK (UniProt Q8WUU5),0.124,0.0534
GCN1_Q92616_1482_EAADDCAK (UniProt Q92616),0.0124,-0.115
GAS2L1_Q99501_276_CSSTAHRPPQPR (UniProt Q99501),0.176,-0.0492
GEMIN5_Q8TEQ6_1051_CYLGATCAYDAAK (UniProt Q8TEQ6),-0.0553,0.281
GATB_O75879_228_AGVGLLEVVLEPDMSCGEEAATAVR (UniProt O75879),-0.141,-0.0354
GGNBP2_Q9H3C7_92_EVLSALSQLVPCVGCR (UniProt Q9H3C7),0.146,0.0528
GINS4_Q9BRT9_53_FAPELLESKPEIVECVMEQLEHMEENLRR (UniProt Q9BRT9),-0.0824,-0.0223
GEMIN5_Q8TEQ6_501_KTVYTLAWGPPVPPMSLGGEGDRPSLALYSCGGEGIVLQHNPWK (UniProt Q8TEQ6),-0.0276,-0.185
GCLM_P48507_72_EFPDVLECTVSHAVEK (UniProt P48507),0.0379,0.0286
GATM_P50440_131_AVAEIEEMCNILK (UniProt P50440),0.0369,0.0694
GAPDH_P04406_247_VPTANVSVVDLTCR (UniProt P04406),-0.0332,0.00651
GAPDH_P04406_156_IISNASCTTNCLAPLAK (UniProt P04406),-0.0539,-0.0462
GEMIN7_Q9H840_44_RAPLRPEVPEIQECPIAQESLESQEQR (UniProt Q9H840),-0.154,-0.558
